Measurements reported in PubChem BioAssay AID686937 (Drosophila RNAi Screening Center, 2013).
The screen tested about 23,000 reagents; this is a random part of those that have a named target and a result. 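Reduced-secretion tags in replicate 1 do not always agree with the z-scores; no criterion for assigning the tags was given.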 A plus sign joins genes that one reagent is predicted to hit. No sequences are given here. Not stated in the record: the amount of reagent.

- Test: 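Genes in the fly needed for secretion of protein constitutively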 (primary screen)
- System: Drosophila S2 cells expressing secreted horseradish peroxidase
- Knock-down reagent: long dsRNA against Drosophila genes
- Time to read-out: about 5.5 days (5 days dsRNA, then 12 h reporter induction)
- Treatment: reporter expression induced after 5 days of dsRNA, read 12 h later; inducer not stated
- Measurement: 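Chemiluminescent measurement of peroxidase in the medium 12 h after reporter induction, following 5 days of dsRNA, given as a z-score per plate; higher means more secretion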
- Scale: z-score: higher = more reporter secreted into medium

| target gene | PubChem SID | z-score, replicate 1 | z-score, replicate 2 | z-score, replicate 3 | z-score, replicate 4 | phenotype, replicate 1 |
| --- | --- | --- | --- | --- | --- | --- |
| CG14829 | SID104189991 | 0.39 | 0.42 | – | – | – |
| Pym | SID104201946 | -4.98 | -1.73 | – | – | reduced secretion |
| Menl-2 + Menl-1 | SID104187261 | 0.39 | 0.5 | – | – | – |
| Menl-2 + Menl-1 | SID104187262 | 0.31 | 0.36 | – | – | – |
| Rpp14b | SID104194855 | -0.14 | -0.29 | – | – | – |
| CG8142 | SID104199878 | 0.13 | 0.28 | – | – | – |
| mib1 | SID104190342 | 0.58 | 0.31 | – | – | – |
| CG15255 | SID104181661 | -0.03 | 0.14 | – | – | – |
| unc79 | SID104195538 | 0.05 | 0.19 | – | – | – |
| CG15753 (retired record) | SID104198774 | -0.33 | 0.61 | -0.06 | -0.43 | – |
| CG15753 (retired record) | SID104199295 | 0.44 | 0.2 | – | – | – |
| CG15753 (retired record) | SID104199508 | 0.1 | 0.55 | – | – | – |
| CG15753 (retired record) | SID104199509 | 0.39 | 0.36 | – | – | – |
| CG15753 (retired record) | SID104199510 | -4.94 | -2.51 | – | – | reduced secretion |
| chinmo | SID104180084 | 0.07 | 0.32 | – | – | – |
| chinmo | SID104180277 | 0.04 | -0.2 | – | – | – |
| chinmo | SID104180301 | -1.68 | -0.53 | – | – | reduced secretion |
| chinmo | SID104201887 | -0.3 | 0.23 | – | – | – |
| CCHa1-R | SID104186248 | 0.12 | 0.33 | – | – | – |
| CCHa1-R | SID104186507 | 0.08 | 0.29 | – | – | – |
| FucTD | SID104188426 | 0.31 | 0.26 | – | – | – |
| Acp26Aa | SID104181647 | -0.14 | -0.01 | – | – | – |
| CG42699 | SID104197868 | 0.07 | 0.13 | – | – | – |
| CG42699 | SID104198133 | 0.53 | 0.39 | – | – | – |
| SA2 | SID104188177 | 0.47 | 0.15 | – | – | – |
| CG12426 | SID104194308 | 0.39 | 0.46 | – | – | – |
| CtsL2 | SID104186770 | 0.31 | 0.31 | – | – | – |
| Nf-YB | SID104181849 | -0.82 | -0.41 | – | – | – |
| CG12507 | SID104199255 | 0.35 | 0.64 | – | – | – |

A portion of the results above:
| target gene | PubChem SID | z-score, replicate 1 | z-score, replicate 2 | z-score, replicate 3 | z-score, replicate 4 | phenotype, replicate 1 |
| --- | --- | --- | --- | --- | --- | --- |
| CG15753 (retired record) | SID104199509 | 0.39 | 0.36 | – | – | – |
| CG15753 (retired record) | SID104199510 | -4.94 | -2.51 | – | – | reduced secretion |
| chinmo | SID104180084 | 0.07 | 0.32 | – | – | – |
| chinmo | SID104180277 | 0.04 | -0.2 | – | – | – |
| chinmo | SID104180301 | -1.68 | -0.53 | – | – | reduced secretion |
| chinmo | SID104201887 | -0.3 | 0.23 | – | – | – |
| CCHa1-R | SID104186248 | 0.12 | 0.33 | – | – | – |
| CCHa1-R | SID104186507 | 0.08 | 0.29 | – | – | – |

The listing continues:
| target gene | PubChem SID | z-score, replicate 1 | z-score, replicate 2 | z-score, replicate 3 | z-score, replicate 4 | phenotype, replicate 1 |
| --- | --- | --- | --- | --- | --- | --- |
| CG15258 | SID104182270 | -0.14 | 0.11 | – | – | – |
| tara | SID104196868 | 0.18 | -0.19 | – | – | – |
| CG33299 | SID104180877 | 0.77 | 0.92 | – | – | – |
| trh | SID104188147 | 0.45 | 0.38 | – | – | – |
| trh | SID104188531 | 0.32 | 0.24 | – | – | – |
| Wdr92 | SID104189979 | 0.19 | 0.16 | – | – | – |
| CG34210 | SID104184371 | -0.01 | 0.15 | – | – | – |
| CG15369 | SID104197833 | 0.47 | 0.75 | – | – | – |
| CG30203 | SID104186482 | -0.08 | 0.19 | – | – | – |
| CG42583 | SID104202294 | -0.11 | 0.1 | – | – | – |
| CG16798 | SID104182309 | 0.36 | 0.28 | – | – | – |
| Or19b + Or19a | SID104202019 | 0.29 | 0 | – | – | – |
| lncRNA:CR43372 | SID104194833 | 0.14 | 0.18 | – | – | – |
| CG43074 | SID104187836 | -0.25 | 0.16 | – | – | – |
| CG5569 | SID104184306 | 0.22 | -0.1 | – | – | – |
| SLC5A11 | SID104182880 | 0.3 | 0.13 | – | – | – |
| bap | SID104196700 | 0.53 | 0.59 | – | – | – |
| c12.2 | SID104198543 | 0.47 | 0.47 | – | – | – |
| CG5665 | SID104191575 | 0.59 | 0.72 | – | – | – |
| beat-Vb | SID104192732 | 0.38 | 0.21 | – | – | – |
| beat-Vb | SID104194636 | -2.22 | -0.13 | – | – | – |
| beat-Vb | SID104194637 | -0.02 | -1.18 | – | – | – |
| CG7484 | SID104190645 | -0.41 | -0.22 | – | – | – |
| CG31007 | SID104193821 | 0.58 | 0.43 | – | – | – |
| Usp10 | SID104188074 | 0.32 | 0.12 | – | – | – |
| Usp10 | SID104188165 | 0.35 | 0.28 | – | – | – |
| toc | SID104179961 | 0.87 | 0.44 | – | – | – |
| toc | SID104179963 | 0.29 | 0.2 | – | – | – |
| toc | SID104180634 | 0.21 | 0.3 | – | – | – |
| Ing5 | SID104182980 | 0.72 | 0.38 | – | – | – |
| CG7126 | SID104195993 | 0.1 | 0.38 | – | – | – |
| Acsl | SID104187044 | 0.54 | 0.5 | – | – | – |
| CG1792 | SID104195082 | 0.22 | 0.23 | – | – | – |
| Eglp4 | SID104184230 | -0.11 | 0.08 | – | – | – |
| inaD | SID104184486 | 0.23 | 0.26 | – | – | – |
| CG14763 | SID104186289 | 0.25 | 0.19 | – | – | – |
| nrv3 | SID104182889 | 0.85 | 0.71 | – | – | – |
| CG9815 | SID104184359 | -0.94 | -0.53 | – | – | – |
| Erk7 | SID104197919 | 0.27 | 0.44 | – | – | – |
| Erk7 | SID104198019 | 0.39 | 0.55 | – | – | – |
| Erk7 | SID104201522 | 0.68 | 0.31 | – | – | – |
| CG32110 | SID104189012 | 0.18 | 0.19 | – | – | – |
| CG33255 (retired record) + hpRNA:CR32205 + CR42838 | SID104189403 | -1.15 | 0.1 | – | – | – |
| CG13949 | SID104180159 | -1.78 | 0.22 | 0.21 | -0.76 | reduced secretion |
| wtrw | SID104194033 | 0.37 | 0.25 | – | – | – |
| wtrw | SID104195070 | 0.66 | 0.2 | -0.53 | 0.1 | – |
| CG1703 | SID104199556 | 0.31 | -0.16 | – | – | – |
| BI-1 | SID104190574 | 0.19 | -0.34 | – | – | – |
| TotX | SID104201742 | -0.27 | -0.1 | – | – | – |
| Ir87a | SID104194628 | 0.66 | 0.09 | – | – | – |
| CG14835 | SID104189997 | 0.16 | 0.21 | – | – | – |
| Frl | SID104189092 | 0.63 | 0.41 | – | – | – |
| Frl | SID104189819 | 0.13 | 0.09 | – | – | – |
| Frl | SID104190508 | -1.41 | 0.06 | 0.29 | -0.78 | – |
